PubChem BioAssay AID743456 | Peter MacCallum Cancer Centre, 2014
Here is an unselected part of 878 deposited reagents. Of all reagents, 27 (3.1%) got an active call. 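27 mimics are marked active, unlike an earlier stated count of 24; the viability threshold is described inconsistently.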 Further read-outs or replicates are left out here. The record does not give: the amount of reagent.

Screen: 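Mimic library tested for viability and apoptosis changes under vorinostat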 (primary screen)
System: human HCT116-VR colon cancer cells, a vorinostat-resistant HCT116 line
Reagent: miRNA mimic
Duration: about 3 days from transfection to readout; drug present for the last 24 h
Challenge: vorinostat at 2.5 µM final for 24 h
Detection: 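Per-well live-cell protease fluorescence and caspase luminescence under 2.5 µM vorinostat for 24 h, scored as robust z-scores and against mock transfection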
Scale: viability robust z-score: higher = more viable cells; caspase robust z-score: higher = more caspase activity, more apoptosis
Hit rule: 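a mimic counts as active if it lands in a lowered-viability class or a caspase-activation class; wells with too few cells without drug are left out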

| microRNA | viability robust z-score | caspase robust z-score | viability hit class | caspase hit class | call |
| --- | --- | --- | --- | --- | --- |
| hsa-miR-1280 | -1.95 | -1.03 | no change | no change | inactive |
| hsa-miR-524-5p | -0.53 | 0.44 | no change | no change | inactive |
| hsa-miR-1538 | 0.7 | -0.08 | no change | no change | inactive |
| hsa-miR-339-5p | -1.19 | 0.07 | no change | no change | inactive |
| hsa-miR-578 | 0 | 1.75 | no change | no change | inactive |
| hsa-miR-29c | -0.36 | -0.94 | no change | no change | inactive |
| hsa-miR-548c-3p | 0.99 | -0.66 | no change | no change | inactive |
| hsa-miR-214* | -2.48 | -0.68 | no change | no change | inactive |
| hsa-miR-379* | 0.56 | -0.62 | no change | no change | inactive |
| hsa-miR-548j | -0.44 | 0.51 | no change | no change | inactive |
| hsa-miR-195* | 1.19 | -0.44 | no change | no change | inactive |
| hsa-miR-542-5p | 0.38 | 0.92 | no change | no change | inactive |
| hsa-miR-1304 | -1.38 | -0.45 | no change | no change | inactive |
| hsa-miR-132* | 0.2 | 1.21 | no change | no change | inactive |
| hsa-miR-194 | 0 | 0.1 | no change | no change | inactive |
| hsa-miR-486-5p | -0.74 | 0.78 | no change | no change | inactive |
| hsa-miR-22* | 0.11 | 1.08 | no change | no change | inactive |
| hsa-miR-92b | 0.46 | -0.37 | no change | no change | inactive |
| hsa-miR-891b | -2.86 | 2.33 | no change | no change | inactive |
| hsa-miR-1914 | 0.76 | -0.68 | no change | no change | inactive |
| hsa-miR-191 | 0.93 | -0.01 | no change | no change | inactive |
| hsa-miR-185* | -1.57 | 2.8 | no change | no change | inactive |
| hsa-miR-129* | -0.88 | -0.6 | no change | no change | inactive |
| hsa-miR-577 | 2 | -0.2 | no change | no change | inactive |
| hsa-miR-500 | -0.21 | -0.62 | no change | no change | inactive |
| hsa-miR-1236 | -2.67 | 1.16 | no change | no change | inactive |
| hsa-miR-744 | -0.82 | 0.58 | no change | no change | inactive |
| hsa-miR-182* | -0.86 | 3.06 | no change | no change | inactive |
| hsa-miR-605 | -1.02 | 1.48 | no change | no change | inactive |
| hsa-miR-210 | -0.27 | 0.21 | no change | no change | inactive |
| hsa-miR-452 | 0.36 | 0.04 | no change | no change | inactive |
| hsa-miR-122* | 0.9 | -0.54 | no change | no change | inactive |
| hsa-miR-1244 | -0.24 | 0.05 | no change | no change | inactive |
| hsa-miR-544 | -1.18 | 0.94 | no change | no change | inactive |
| hsa-miR-1208 | -0.34 | 1.34 | no change | no change | inactive |
| hsa-miR-1180 | -1 | 0.6 | no change | no change | inactive |
| hsa-miR-1909* | -0.83 | 1.09 | no change | no change | inactive |
| hsa-miR-103-2* | -1.9 | 1.88 | no change | no change | inactive |
| hsa-miR-187* | 1.11 | -0.55 | no change | no change | inactive |
| hsa-miR-1285 | -0.82 | 0.12 | no change | no change | inactive |
| hsa-miR-937 | 0.9 | -0.14 | no change | no change | inactive |
| hsa-let-7d | -0.41 | 0.16 | no change | no change | inactive |
| hsa-miR-130a* | 0.19 | -0.85 | no change | no change | inactive |
| hsa-miR-146a | -0.16 | -0.98 | no change | no change | inactive |
| hsa-miR-515-5p | 0.62 | 0.4 | no change | no change | inactive |
| hsa-miR-30a* | -0.34 | -0.47 | no change | no change | inactive |
| hsa-miR-518f | -0.56 | -0.41 | no change | no change | inactive |
| hsa-miR-181a* | 1.17 | -0.39 | no change | no change | inactive |
| hsa-miR-142-3p | -0.81 | 2.52 | no change | no change | inactive |
| hsa-miR-744* | -2.07 | 3.47 | no change | no change | inactive |
| hsa-miR-1261 | -2.67 | -1.06 | no change | no change | inactive |
| hsa-miR-33a | 0.7 | -0.3 | no change | no change | inactive |
| hsa-miR-135b | -0.2 | -0.73 | no change | no change | inactive |
| hsa-miR-620 | -1.13 | 0.18 | no change | no change | inactive |
| hsa-miR-615-3p | -0.36 | -0.14 | no change | no change | inactive |
| hsa-miR-649 | -0.13 | -0.66 | no change | no change | inactive |
| hsa-let-7b* | -0.05 | 0.15 | no change | no change | inactive |
| hsa-miR-374a | 0.76 | -0.66 | no change | no change | inactive |
| hsa-miR-129-5p | -2.17 | 1 | no change | no change | inactive |
| hsa-miR-296-5p | 0.11 | -0.36 | no change | no change | inactive |
| hsa-miR-1257 | -0.27 | 0.44 | no change | no change | inactive |
| hsa-miR-655 | -0.22 | -0.86 | no change | no change | inactive |
| hsa-miR-586 | 0.78 | -0.42 | no change | no change | inactive |

Reformatted: results already given
hsa-miR-22*
- viability robust z-score: 0.11
- caspase robust z-score: 1.08
- viability hit class: no change
- caspase hit class: no change
- call: inactive

hsa-miR-92b
- viability robust z-score: 0.46
- caspase robust z-score: -0.37
- viability hit class: no change
- caspase hit class: no change
- call: inactive

hsa-miR-891b
- viability robust z-score: -2.86
- caspase robust z-score: 2.33
- viability hit class: no change
- caspase hit class: no change
- call: inactive

hsa-miR-1914
- viability robust z-score: 0.76
- caspase robust z-score: -0.68
- viability hit class: no change
- caspase hit class: no change
- call: inactive

hsa-miR-191
- viability robust z-score: 0.93
- caspase robust z-score: -0.01
- viability hit class: no change
- caspase hit class: no change
- call: inactive

hsa-miR-185*
- viability robust z-score: -1.57
- caspase robust z-score: 2.8
- viability hit class: no change
- caspase hit class: no change
- call: inactive

hsa-miR-129*
- viability robust z-score: -0.88
- caspase robust z-score: -0.6
- viability hit class: no change
- caspase hit class: no change
- call: inactive

hsa-miR-577
- viability robust z-score: 2
- caspase robust z-score: -0.2
- viability hit class: no change
- caspase hit class: no change
- call: inactive

hsa-miR-500
- viability robust z-score: -0.21
- caspase robust z-score: -0.62
- viability hit class: no change
- caspase hit class: no change
- call: inactive
